For at least one compound, name, drawing or mass did not settle the structure.
How the values were obtained:
[1] = test system: lymphocytes; assay: Lymphocyte survival, Trypan Blue exclusion assay; type: cell-based, human; conditions: 90 μM FeCl3 + 1 mM ascorbate + 1 mM deferoxamine (FIG. 23, Column 9)
Experimental: Saliva collection: Saliva was collected from healthy subjects, 3 males and 3 females ranging from 21-47 years of age, under non-stimulatory conditions in a quiet room during the morning between 8 am and noon. Saliva collection was performed at least 1 h after eating by spitting into a recipient for 10 minutes, as previously described (43). Following collection, saliva was immediately centrifuged at 800×g for 10 min at 4° C. to remove cells and cell debris and the resulting supernatant was used for biochemical analyses.
Lymphocyte isolation: Blood from 10 consenting, healthy, non-smoking subjects, 5 males and 5 females ranging from 18-55 years of age, was drawn into EDTA-containing vacutainers. Lymphocytes were isolated by Ficoll-Hypaque (Sigma) gradient centrifugation according to the manufacturer's instructions and lymphocytes were suspended at 10^7 cells/ml PBS (Beit-Ha'emek Industries, Israel), and used immediately in experiments.
A reproducible vacuum was created in the flask and upon application of vacuum for 5 s, 80-100 ml of TS from the lit cigarette was drawn into the flask. […] Saliva treatment of lymphocytes was performed by suspending these in PBS supplemented with 30% (v/v) saliva. […]
Measurement of lymphocyte survival: Lymphocyte viability was assessed by Trypan Blue exclusion assay.

[2] = test system: oral peroxidase (OPO); assay: Oral peroxidase (OPO) activity in saliva, NBS-SCN assay; type: biochemical, human; conditions: 1 mM ascorbate or 100 μM FeCl3, 2 h (FIG. 10)

Compound	prevention of reduction of lymphocyte survival rate by FeCl3 + ascorbate [1]	inhibition of OPO activity on exposure of saliva [2]
CC(=O)N(O)CCCCCNC(=O)CCC(=O)N(O)CCCCCNC(=O)CCC(=O)N(O)CCCCCN [deferoxamine]	totally prevented	–
O=C1O[C@H]([C@@H](O)CO)C(O)=C1O [ascorbate]	–	did not inhibit OPO activity

— US20100108086A1, “TOBACCO AND TOBACCO PACKAGING MATERIAL FOR PREVENTING OR REDUCING TOBACCO-ASSOCIATED INJURY IN THE AERODIGESTIVE TRACT OF A SUBJECT” (Technion Research & Development Foundation Ltd, priority 2007, published 2010)
